Earlier results in patent EP2156182B1, “DETECTION OF AN ANALYTE IN A SAMPLE OF HEMOLYZED WHOLE BLOOD” (Roche Diagnostics GmbH, priority 2007, dated 2008).
At least one compound was matched to its structure with a doubt left.

Conditions: relative to cyclosporin

CO[C@H]1C[C@@H]2CC[C@@H](C)[C@@](O)(O2)C(=O)C(=O)N2CCCC[C@H]2C(=O)O[C@H]([C@H](C)C[C@@H]2CC[C@@H](O)[C@H](OC)C2)CC(=O)[C@H](C)/C=C(\C)[C@@H](O)[C@@H](OC)C(=O)[C@H](C)C[C@H](C)/C=C/C=C/C=C/1C [sirolimus]
times more potent than cyclosporin in vitro: up to 100 times
